Common to all, as to test: co-IP
Test [1] has as its target T1, Flag-tagged TANK-binding kinase 1 (TBK1), Q9UHD2.
T1 chain: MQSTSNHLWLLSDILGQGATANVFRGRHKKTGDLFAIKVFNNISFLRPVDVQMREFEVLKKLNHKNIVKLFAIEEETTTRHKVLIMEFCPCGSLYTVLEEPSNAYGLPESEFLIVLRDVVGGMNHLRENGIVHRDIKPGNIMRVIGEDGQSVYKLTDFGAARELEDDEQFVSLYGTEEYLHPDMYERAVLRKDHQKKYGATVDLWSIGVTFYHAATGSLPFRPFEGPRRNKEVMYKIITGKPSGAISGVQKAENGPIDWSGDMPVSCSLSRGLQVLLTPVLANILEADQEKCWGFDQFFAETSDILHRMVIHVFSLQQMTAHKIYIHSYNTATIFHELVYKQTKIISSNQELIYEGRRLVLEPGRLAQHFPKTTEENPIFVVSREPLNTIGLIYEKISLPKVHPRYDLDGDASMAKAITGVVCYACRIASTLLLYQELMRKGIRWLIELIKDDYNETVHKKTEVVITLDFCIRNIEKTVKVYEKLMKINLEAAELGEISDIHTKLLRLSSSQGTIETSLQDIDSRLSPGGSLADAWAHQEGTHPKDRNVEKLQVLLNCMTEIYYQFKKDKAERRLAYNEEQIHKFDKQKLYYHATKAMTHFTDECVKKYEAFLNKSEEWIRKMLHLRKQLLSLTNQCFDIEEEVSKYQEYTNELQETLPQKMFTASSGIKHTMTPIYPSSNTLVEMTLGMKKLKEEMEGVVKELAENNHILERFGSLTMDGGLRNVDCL
The conditions noted are these: remark: other sources report otherwise.

Test [2] addresses T2, Flag-tagged TANK-binding kinase 1 (TBK1) (UniProt Q9UHD2).
T2 sequence: T1 chain

In test [3] the target is T3, Myc-tagged ubiquitin-specific protease 15 (USP15) (UniProt Q9Y4E8).
T3 sequence: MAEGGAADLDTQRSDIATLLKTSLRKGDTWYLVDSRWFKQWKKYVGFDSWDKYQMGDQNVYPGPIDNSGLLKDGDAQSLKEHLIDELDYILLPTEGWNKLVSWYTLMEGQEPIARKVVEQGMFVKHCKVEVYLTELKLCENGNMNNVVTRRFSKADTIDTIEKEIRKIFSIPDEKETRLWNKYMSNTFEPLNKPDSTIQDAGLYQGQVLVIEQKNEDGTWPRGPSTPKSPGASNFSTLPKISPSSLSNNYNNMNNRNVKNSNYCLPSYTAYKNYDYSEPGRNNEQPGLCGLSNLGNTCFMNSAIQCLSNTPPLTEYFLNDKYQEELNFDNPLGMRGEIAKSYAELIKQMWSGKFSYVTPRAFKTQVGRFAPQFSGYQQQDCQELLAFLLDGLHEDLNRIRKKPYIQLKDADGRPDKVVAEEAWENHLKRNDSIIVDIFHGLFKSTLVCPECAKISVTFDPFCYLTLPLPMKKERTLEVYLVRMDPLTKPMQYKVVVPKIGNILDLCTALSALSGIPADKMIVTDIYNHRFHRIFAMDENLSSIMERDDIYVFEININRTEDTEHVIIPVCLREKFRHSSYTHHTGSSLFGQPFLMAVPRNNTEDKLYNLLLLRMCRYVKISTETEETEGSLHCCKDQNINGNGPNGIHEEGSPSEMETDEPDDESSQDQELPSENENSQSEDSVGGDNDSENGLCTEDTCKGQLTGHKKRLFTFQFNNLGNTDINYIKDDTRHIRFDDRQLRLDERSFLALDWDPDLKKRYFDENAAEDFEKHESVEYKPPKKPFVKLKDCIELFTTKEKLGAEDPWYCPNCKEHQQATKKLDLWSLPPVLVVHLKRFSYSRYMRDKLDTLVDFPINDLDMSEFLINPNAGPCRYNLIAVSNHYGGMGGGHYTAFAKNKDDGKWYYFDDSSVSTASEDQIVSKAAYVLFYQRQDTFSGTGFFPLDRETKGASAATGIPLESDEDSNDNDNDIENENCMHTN

In test [4] the target is T4, TANK-binding kinase 1 (TBK1), endogenous in mouse macrophages (mouse (endogenous in BMDMs)) (UniProt Q9WUN2).
T4 sequence: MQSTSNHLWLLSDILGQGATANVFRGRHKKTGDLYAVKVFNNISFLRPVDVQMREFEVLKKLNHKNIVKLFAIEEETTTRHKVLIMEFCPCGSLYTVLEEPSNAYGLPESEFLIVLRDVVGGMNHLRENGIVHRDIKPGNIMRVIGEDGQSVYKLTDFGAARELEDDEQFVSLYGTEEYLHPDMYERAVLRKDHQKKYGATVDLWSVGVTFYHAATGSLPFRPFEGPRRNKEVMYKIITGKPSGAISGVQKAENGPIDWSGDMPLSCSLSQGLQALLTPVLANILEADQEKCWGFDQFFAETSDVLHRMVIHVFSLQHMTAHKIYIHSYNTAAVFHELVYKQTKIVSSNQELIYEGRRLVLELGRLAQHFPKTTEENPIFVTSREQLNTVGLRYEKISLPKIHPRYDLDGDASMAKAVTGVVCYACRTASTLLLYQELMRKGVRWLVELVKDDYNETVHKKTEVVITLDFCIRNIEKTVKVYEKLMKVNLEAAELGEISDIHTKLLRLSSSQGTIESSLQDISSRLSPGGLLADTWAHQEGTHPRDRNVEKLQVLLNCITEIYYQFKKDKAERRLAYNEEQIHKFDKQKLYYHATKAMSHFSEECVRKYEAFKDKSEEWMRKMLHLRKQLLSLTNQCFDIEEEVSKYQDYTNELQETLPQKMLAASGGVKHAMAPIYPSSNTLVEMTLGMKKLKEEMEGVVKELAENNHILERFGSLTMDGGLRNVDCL

Results are given in words; binding and its absence hold for the method and conditions named. In cells and extracts the contact can be indirect. Some entries that bind do so weakly or less than the wild type. For some of these results: Sequences can lack the tags named with a protein.

B1: Myc-tagged ubiquitin-specific protease 15 (USP15), Q9Y4E8 1-981 (enzyme)
chain: T3 sequence
Take B1: in test [1], the binding result is recorded as “binds”.

B2: V5-tagged scavenger receptor A (SRA) (receptor, UniProt P21757 1-451)
chain: MEQWDHFHNQQEDTDSCSESVKFDARSMTALLPPNPKNSPSLQEKLKSFKAALIALYLLVFAVLIPLIGIVAAQLLKWETKNCSVSSTNANDITQSLTGKGNDSEEEMRFQEVFMEHMSNMEKRIQHILDMEANLMDTEHFQNFSMTTDQRFNDILLQLSTLFSSVQGHGNAIDEISKSLISLNTTLLDLQLNIENLNGKIQENTFKQQEEISKLEERVYNVSAEIMAMKEEQVHLEQEIKGEVKVLNNITNDLRLKDWEHSQTLRNITLIQGPPGPPGEKGDRGPTGESGPRGFPGPIGPPGLKGDRGAIGFPGSRGLPGYAGRPGNSGPKGQKGEKGSGNTLTPFTKVRLVGGSGPHEGRVEILHSGQWGTICDDRWEVRVGQVVCRSLGYPGVQAVHKAAHFGQGTGPIWLNEVFCFGRESSIEECKIRQWGTRACSHSEDAGVTCTL
For the molecule B2, the binding entry in test [2] and in test [3] was “binds” throughout.

B3: scavenger receptor A (SRA), endogenous in mouse macrophages (receptor, UniProt P30204 1-458)
chain: MTKEMTENQRLCPHEQEDADCSSESVKFDARSMTASLPHSTKNGPSLQEKLKSFKAALIALYLLVFAVLIPVVGIVTAQLLNWEMKNCLVCSLNTSDTSQGPMEKENTSKVEMRFTIIMEHMKDMEERIESISNSKADLIDTERFQNFSMATDQRLNDILLQLNSLISSVQEHGNSLDAISKSLQSLNMTLLDVQLHTETLNVRVRESTAKQQEDISKLEERVYKVSAEVQSVKEEQAHVEQEVKQEVRVLNNITNDLRLKDWEHSQTLKNITFIQGPPGPQGEKGDRGLTGQTGPPGAPGIRGIPGVKGDRGQIGFPGGRGNPGAPGKPGRSGSPGPKGQKGEKGSVGGSTPLKTVRLVGGSGAHEGRVEIFHQGQWGTICDDRWDIRAGQVVCRSLGYQEVLAVHKRAHFGQGTGPIWLNEVMCFGRESSIENCKINQWGVLSCSHSEDAGVTCTS
On to B3, for which the binding result in test [4] is given as “binds”.

For the origin of these results see article PMC9769732.
